# Measurements: PubChem BioAssay AID1347423 (Functional Genomics Laboratory (NCATS/FGL), 2020)
# About 210 (0.4%) of roughly 52,000 sequences were called active.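 Rule for the calls: active = gene whose silencing raises cell survival under the drug, median off-target-corrected z-score across its silencing RNAs 2 or more; inactive = the rest.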 Some of the results follow.
# Assay: Resistance to Poly (ADP-Ribose) Polymerase inhibitor: Gene Identification via Genome-wide siRNA Screen
# Conditions: mouse BRCA2 R2336H ES cells, olaparib, CellTiter-Glo viability; active compounds read high
# Method in brief: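 Mouse BRCA2 R2336H ES cells were reverse-transfected with siRNA (20 nM final), treated at 48 h with 500 nM olaparib, and read by CellTiter-Glo after 72 h. Scores: MAD-based z per siRNA, median per gene, seed off-target correction.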
row,Sequence,z-score
1,GGGAAUGGCGCAGACAAUGTT against Mllt10,inactive: -1.51
2,GGUUGAACGGACAGAAAGGTT against Cpne3,inactive: -1.16
3,CCUUGAUCGUGGGACCUUUTT against Slc16a14,inactive: 1.93
4,CCAAGUAUAAGAUCGUGACTT against Card4,inactive: 0.471
5,GCAAAUUUACCUCGGUUUUTT against Olfr46,inactive: -0.589
6,GGAAAUUACGACAUACAAATT against Rp1h,inactive: 0.887
7,GUCUGCAUCACCUUCACCATT against Lhb,inactive: -0.561
8,CCUUAUUUAGCUAAAGGAGTT against Rasl2-9,inactive: 0.458
9,GGACUACGUACAGUCCAUGTT against Eef1b2,inactive: 0.197
10,CCACAGCCAUUCGCACAUATT against Sec8l1,inactive: 0.233
11,CCAAAUAUGUACUUCAUGGTT against Adipor1,inactive: 0.946
12,GUAAGGGCGGUUCUAAGAGTT against Ggnbp1,inactive: -1.15
13,GGGUGAGAAUCAGCUAUACTT against 0610011B16Rik,inactive: -1.5
14,CCAAUUGGGCCACACGUAATT against Tial1,inactive: -0.631
15,GGCAUUAAUAGACCAGUUATT against Pcmt1,inactive: -1.72
16,GGUUGAUGAUGUUGUGAAATT against Mrps15,inactive: -0.197
17,GCGAAAGAGAGAGUGACUUTT against Olfr812,inactive: -1.77
18,GGAGAAUCUUAGAGAUUAUTT against Pramel1,inactive: -1.22
19,GGGCAUCAUCUAUAAAAAGTT against Avil,inactive: 0.214
20,GGCAAAGAGGCCAAAGCCATT against Zfp281,inactive: -1.21
21,GGACAGGAAAGUCAAGUACTT against Txnrd2,inactive: -1.87
22,GGUCUUUUGAGCCAAUGGUTT against 4930470P17Rik,inactive: -0.261
23,GGUGUCAUUCCAUAGUUCUTT against Ap4m1,inactive: 1.1
24,GCAAAAAGGAGCGGUCCACTT against Plce1,inactive: 0.642
25,GGUGUUAUCUGCAUCAUCATT against Cyp4f15,inactive: 0.255
26,GGAUUCCACAAUUUUUGUATT against Ncoa6,inactive: 1.51

row,Sequence,z-score
1,CCUUAGGAAUUCACAAUCUTT against Mcpt8,inactive: 0.0805
2,GCUGUUUGACUAAAUGAACTT against Tlr13,inactive: 0.26
3,GGGUUGAAUCACAAUUUGUTT against Ube2e1,inactive: -0.329
4,GGCCAAAUUCAACUAGUUCTT against Nudc,inactive: -1.54
5,GGCCGUGUUAUCCAGAUUGTT against Prkcd,inactive: -0.566
6,GUCUGGAGCCCUGUAUUCCTT against Nradd,inactive: 2.88
7,CCUUAACAUGUUUCAUCUATT against Sap30,inactive: 0.776
8,GGGCUAAGCACCUGAGAUCTT against 9430041C03Rik,inactive: 1.31
9,GGGUAUUUUCACUGAAAGUTT against Ltbp3,inactive: 0.2
10,GGAGAUUCUUUCUUUGAUGTT against Fgfr1op,inactive: 0.372
11,GGAGAUGAAUUGAUGACCCTT against Strap,inactive: 0.224
12,GGAGUCAAUGCAAUUGUUUTT against Arl10c,inactive: 0.394
13,GGGUCAUCCACUUUGUCAGTT against 1700047I17Rik,inactive: 0.323
14,GGAAAAGGUUAAGAAAGCATT against Hrb2,inactive: -1.48
15,GGAAUGGUAGAAGCAACAGTT against Kcnj5,inactive: 0.0691
16,GGCUGGAUAAAAAUAACUUTT against Heyl,inactive: -0.732
17,GGUAUUGAACCAUGGCUUATT against Mcts1,inactive: 0.054
18,GCAAUCAACAUUGAGAUGUTT against Rufy2,inactive: -0.231
19,GGCAUAGUCGAGGAGAGUGTT against 4631427C17Rik,inactive: -1
20,GCCUAGAAGAAAAACUAAATT against 5730409G15Rik,inactive: 0.543
21,GGCCAGGAAAGAUACAGGATT against Rab3c,inactive: 0.567
22,GCAGGUUCGAAUUCAAGGATT against Gria4,inactive: 0.449
23,GGACGGUCCUCUUAAAAGATT against Chat,inactive: -0.066
24,GCUGAUUGAACUGAAUGGATT against Slc22a9,inactive: -0.307
25,GCCUGAACAGCCUUGAAUUTT against 1110011D13Rik,inactive: 0.0489
26,GCCAAAUAGUUCCUUUCUGTT against 2010003O18Rik,inactive: 1.64

# Another view of part of the listing above.
row	Sequence	z-score
9	GGGUAUUUUCACUGAAAGUTT against Ltbp3	inactive: 0.2
10	GGAGAUUCUUUCUUUGAUGTT against Fgfr1op	inactive: 0.372

# Additional entries:

row,Sequence,z-score
1,GGAUGUCCUGAAAGUAGUUTT against Plscr1,inactive: -1.55
2,GGUCUGUGUCAAAAACCACTT against Klk11,inactive: -0.111
3,ACAUUUUCCGAGGCUUGGUTT against Rtn4rl2,inactive: -1.4
4,GGACCCUGAUGAGAUGAAUTT against Gcg,inactive: 0.226
5,GGCCAAAGCCAGAAUCUCATT against Zfp281,inactive: -0.796
6,GGUCAUCGGUACCACCAGATT against Rdh8,inactive: -0.0714
7,GGCCAAAGAGAUGCUGAAGTT against Spire2,inactive: 2.49
8,GCCCACGUACAGAAAACAGTT against LOC213043,inactive: 0.095
9,GGGUGUGAAAGUUGUCUUCTT against Foxb1,inactive: -0.345
10,GCAACUCUACUUGUCAAUUTT against 2210415F13Rik,inactive: 0.801
11,GGAAUCCUGGUGCUGAUUATT against 2900073H19Rik,inactive: -1.7
12,GCUACUAUGUGCCCUGAUATT against Ms4a7,inactive: -2
13,GGCAUCUGAGUGAUAUAAATT against 1700001E16Rik,inactive: 0.37
14,CCUCGAGUCAUGGUGUAUCTT against Ndufb9,inactive: 0.891
15,GCGACACACCAGAAGUUAUTT against Fgf7,inactive: -1.35
16,GGAGAGAUGGAUGGAAAAATT against 1700127D06Rik,inactive: -2.55
17,GCAGAAUGUCACUAAGUGCTT against Sdcbp2,inactive: 0.671
18,GGAGUGCAGUACAAAGGACTT against Ahsa1,inactive: -1.21
19,CCGCCAGACCUUCAUUACCTT against 2200003E03Rik,inactive: -0.0363
20,GGGACCUUGUAAUAGCAAATT against 1110054O05Rik,inactive: 1.23
21,GCCUCAGUUAUUUAAUGAATT against Mpp3,inactive: 0.434
22,GGAGAUCAAUCUAGAUUUGTT against Atpaf1,inactive: 1.33
23,GGAGCAGGUUACCAGAAAATT against E130114P18Rik,inactive: -1.2
24,GGCAGAGUAAGAGUGCACUTT against Olfr1238,inactive: -0.225
25,GGCUUUCCGGAGUGAUAGUTT against Scamp3,inactive: -0.104
26,GCUGAGGUUGAACUUUAUUTT against C330023M02Rik,inactive: -1.08

row,Sequence,z-score
1,GGAUAUGGUUAAAGCCAAATT against 1810010M01Rik,inactive: 0.0946
2,GCAGUGUAACAUGAUCAAUTT against Scarb1,inactive: 0.241
3,GGAGACACAGGAGAGAUACTT against Brd8,inactive: -1.02
4,GGCUCAGGACAUGUAUUACTT against Rsb30,inactive: -0.012
5,GGUGAUGUCCUAUUUCAAATT against 1810033M07Rik,inactive: 0.417
6,CUAGUAGGGUCAGAAUUUUTT against Olfr329,inactive: 2.11
7,GGAUGUCAUUAAACCUAAGTT against D8Ertd233e,inactive: 0.062
8,GCAGAUCCGGUAUUUACAUTT against AW552001,inactive: 0.699
9,CCUCUUAGAUCAGGAUUAUTT against Usp37,inactive: -0.0502
10,GGAAAGCACAUCCUCUUUGTT against Gpx6,inactive: -2.19
11,GGGCCUGCUCUCUUUUCUGTT against 5730414C17Rik,inactive: -0.684
12,CGUGCAGAGGUGGUACCAATT against 9830109N13Rik,inactive: -1.27
13,CCAAAUUCCUAUCAAGUUUTT against 2810417D08Rik,inactive: 0.0937
14,GGUAAAGAAAUCCUUCAAATT against Syt6,inactive: -0.68
15,GGUGAACACGUUUGUAAUGTT against Pcnx,inactive: -0.477
16,CCGCCUACGUAAACACCAATT against Tnk2,inactive: 1.14
17,GGGAGUUUUCAGACAUUCUTT against A530050P17Rik,inactive: -0.0908
18,CGAUUAUCGGCCCAGCAAATT against Bmp1,inactive: -1.04
19,GGAUCAGUGACUGAUCUUGTT against Myo3a,inactive: 0.772
20,GGAGGAACUGAUGACUCUGTT against 2310005P05Rik,inactive: 0.0654
21,CAGCAUGAUGAUGGAGACCTT against Sox1,inactive: -0.476
22,GCCUGAGAUCGUGAACACUTT against 2510048L02Rik,inactive: -0.446
23,GCAUGAGAAGAUUUAUAGGTT against Stac,inactive: 0.589
24,CCUUAGAUUCACUCAGCACTT against Dbpht2,inactive: 0.641
25,CCAUCAUUGCUCGUAUUGGTT against Olfr656,inactive: 0.017
26,CCUGGAAUCUGUCCCUCAUTT against Olfr262,inactive: -1.01

# Single values from above:
# In z-score, GGCAGAGUAAGAGUGCACUTT against Olfr1238 reads inactive: -0.225
# In z-score, GCAGAAUGUCACUAAGUGCTT against Sdcbp2 reads inactive: 0.671
